Tested on: gene expression (mRNA) in peripheral blood (lymphocytes)
Assay: Gene expression profiling (Affymetrix DNA microarrays) of blood samples of psoriatic patients before and after oral ASM981
Assay type: in vivo, human
Conditions: of the list of modulated genes
Experimental: The dose used was 60 mg/day, given as 30 mg twice a day (b.i.d.). To make this dose the […] tablets were cut in half using a special cutter (Tablettenteiler NR.96) so as to obtain 30 mg of ASM981 or a matched amount of placebo.
ASM981 was evaluated as treatment for psoriasis using an oral dose of 60 mg (30 mg b.i.d) during a 4 weeks clinical study. The oral formulation used was a highly standardized oral dosage form that could be produced in large amounts and with a highly uniform composition, this was oral formulation A.
The cohort included 10 patients; 8 received oral formulation A and 2 received a placebo. Blood samples were collected before the first administration to establish the gene expression baseline and on days 13 or 14 after treatment with ASM981 or placebo and submitted to gene expression analysis in order to gain insights into the mechanisms of action of the compound.
The RNA from each of the blood samples was extracted and tested on individual DNA microarrays, thus allowing, for each patient, a comparison of gene expression before and after ASM981 treatment. […] Genes that were consistently modulated, i.e., change greater then a factor of two, were sorted in functional categories. […]
The data were analyzed comparing, for each individual patient, the gene expression levels before and after treatment. […]

Compound: CC[C@@H]1/C=C(\C)C[C@H](C)C[C@H](OC)[C@H]2O[C@@](O)(C(=O)C(=O)N3CCCC[C@H]3C(=O)O[C@H](/C(C)=C/[C@@H]3CC[C@H](Cl)[C@H](OC)C3)[C@H](C)[C@@H](O)CC1=O)[C@H](C)C[C@@H]2OC [ASM981, 33-Epichloro-33-desoxy-ascomycin]
- share of down-regulated genes: 88%

From US20050181516A1, “Bioequivalence determination using expression profiling” (priority 2002, published 2005)
